The list shows a part of the results.
How the values were obtained:
Assay in all cases: log2 fold change, soluble protein after heating vs DMSO (PISA); higher = thermal stabilisation; K562 cells, 10 uM, 30 min; active = over 0.2 and 3.5 SD of the protein, either way, in both replicates (recomputed)
[1] = compound: CC[C@@H]1C(=O)N(C)c2cnc(Nc3ccc(C(=O)NC4CCN(C)CC4)cc3OC)nc2N1C1CCCC1
Outline: (§1)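 K562 cells at 2×10^6 cells/mL were given 10 μM compound for 30 min. Aliquots then went through 3 min of heating across 48°C-58°C, were pooled, and were extracted in PBS with 0.5% NP-40 at 4°C, and the supernatant after 21,000xg for 90 min was quantified by TMTpro 16plex LC-MS/MS with channel sums equalised. Thermal stability relative to control samples, from duplicates, is given as log2 fold change.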

The chains behind the UniProt entries cited, without tags or fusion partners. Where a name states a change or a piece, a line headed by the entry shows the natural chain unless it says otherwise.
UniProt P51003: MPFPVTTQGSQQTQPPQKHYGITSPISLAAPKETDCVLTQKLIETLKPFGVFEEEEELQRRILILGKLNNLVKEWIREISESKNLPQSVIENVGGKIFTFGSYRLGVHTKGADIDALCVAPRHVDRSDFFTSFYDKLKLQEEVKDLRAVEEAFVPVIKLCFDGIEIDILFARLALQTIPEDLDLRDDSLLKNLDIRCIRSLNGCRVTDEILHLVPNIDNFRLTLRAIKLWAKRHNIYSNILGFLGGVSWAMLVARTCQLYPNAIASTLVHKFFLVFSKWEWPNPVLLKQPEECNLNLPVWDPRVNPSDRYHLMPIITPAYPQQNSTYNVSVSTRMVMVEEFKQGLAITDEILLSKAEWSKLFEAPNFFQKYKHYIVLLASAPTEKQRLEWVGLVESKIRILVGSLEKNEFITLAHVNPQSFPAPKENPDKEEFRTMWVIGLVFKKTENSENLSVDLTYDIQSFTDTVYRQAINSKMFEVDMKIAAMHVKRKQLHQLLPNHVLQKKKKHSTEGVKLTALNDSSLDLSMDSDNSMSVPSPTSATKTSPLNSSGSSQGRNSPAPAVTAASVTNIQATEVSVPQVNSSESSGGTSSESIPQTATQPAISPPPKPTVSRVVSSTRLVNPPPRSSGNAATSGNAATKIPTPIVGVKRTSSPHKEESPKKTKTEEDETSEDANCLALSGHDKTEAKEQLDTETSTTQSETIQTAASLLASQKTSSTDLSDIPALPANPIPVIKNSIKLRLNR
UniProt Q6P996: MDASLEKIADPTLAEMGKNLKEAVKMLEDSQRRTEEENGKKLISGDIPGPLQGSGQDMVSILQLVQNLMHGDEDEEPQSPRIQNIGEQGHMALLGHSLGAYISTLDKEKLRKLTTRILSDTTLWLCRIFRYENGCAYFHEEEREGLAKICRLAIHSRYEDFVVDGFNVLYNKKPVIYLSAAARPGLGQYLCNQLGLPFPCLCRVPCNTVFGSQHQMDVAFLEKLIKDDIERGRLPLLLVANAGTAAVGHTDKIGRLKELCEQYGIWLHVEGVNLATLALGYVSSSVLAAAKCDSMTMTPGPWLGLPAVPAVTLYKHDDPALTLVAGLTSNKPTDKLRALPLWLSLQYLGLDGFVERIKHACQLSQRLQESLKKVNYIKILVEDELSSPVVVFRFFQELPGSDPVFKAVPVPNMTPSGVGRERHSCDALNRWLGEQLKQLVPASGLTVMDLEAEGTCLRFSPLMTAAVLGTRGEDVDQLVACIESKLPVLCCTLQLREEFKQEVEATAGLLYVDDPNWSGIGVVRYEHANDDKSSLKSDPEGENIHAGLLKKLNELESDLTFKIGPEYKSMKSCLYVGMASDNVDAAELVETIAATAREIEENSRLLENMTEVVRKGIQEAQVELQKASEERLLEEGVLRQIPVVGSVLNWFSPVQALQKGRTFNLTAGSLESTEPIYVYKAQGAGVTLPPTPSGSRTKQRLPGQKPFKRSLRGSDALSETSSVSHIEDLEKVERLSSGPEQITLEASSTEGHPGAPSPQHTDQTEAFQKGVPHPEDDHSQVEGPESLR
UniProt P56645: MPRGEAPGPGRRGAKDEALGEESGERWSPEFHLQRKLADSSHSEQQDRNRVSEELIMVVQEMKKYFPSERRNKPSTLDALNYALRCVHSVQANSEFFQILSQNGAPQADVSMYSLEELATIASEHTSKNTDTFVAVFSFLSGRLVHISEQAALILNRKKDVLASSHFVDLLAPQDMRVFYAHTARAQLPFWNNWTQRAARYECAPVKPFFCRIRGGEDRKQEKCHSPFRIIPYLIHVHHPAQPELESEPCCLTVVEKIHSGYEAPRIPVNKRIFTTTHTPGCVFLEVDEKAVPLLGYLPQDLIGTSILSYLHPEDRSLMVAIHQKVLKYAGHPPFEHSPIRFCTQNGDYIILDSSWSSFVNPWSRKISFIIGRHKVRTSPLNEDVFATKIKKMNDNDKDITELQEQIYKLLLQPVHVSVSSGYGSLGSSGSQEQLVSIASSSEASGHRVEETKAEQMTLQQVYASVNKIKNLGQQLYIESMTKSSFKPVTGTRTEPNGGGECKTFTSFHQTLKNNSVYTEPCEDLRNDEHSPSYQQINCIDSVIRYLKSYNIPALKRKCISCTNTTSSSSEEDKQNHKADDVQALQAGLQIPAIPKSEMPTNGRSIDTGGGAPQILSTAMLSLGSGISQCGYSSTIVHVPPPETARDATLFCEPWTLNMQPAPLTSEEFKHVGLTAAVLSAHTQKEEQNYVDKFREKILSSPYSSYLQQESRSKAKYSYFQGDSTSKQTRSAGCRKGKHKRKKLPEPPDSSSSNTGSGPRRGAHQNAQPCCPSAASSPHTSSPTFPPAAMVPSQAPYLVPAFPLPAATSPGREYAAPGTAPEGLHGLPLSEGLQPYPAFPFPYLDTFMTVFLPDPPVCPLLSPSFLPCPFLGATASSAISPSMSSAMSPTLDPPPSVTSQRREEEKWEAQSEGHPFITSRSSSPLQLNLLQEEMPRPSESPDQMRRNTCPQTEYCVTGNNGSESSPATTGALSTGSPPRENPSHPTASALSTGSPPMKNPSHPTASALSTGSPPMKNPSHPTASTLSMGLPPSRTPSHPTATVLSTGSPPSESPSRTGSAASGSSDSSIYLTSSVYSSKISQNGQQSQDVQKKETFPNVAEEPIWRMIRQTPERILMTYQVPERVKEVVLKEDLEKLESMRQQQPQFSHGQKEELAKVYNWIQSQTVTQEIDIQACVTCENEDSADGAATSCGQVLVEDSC
UniProt Q9H0N5: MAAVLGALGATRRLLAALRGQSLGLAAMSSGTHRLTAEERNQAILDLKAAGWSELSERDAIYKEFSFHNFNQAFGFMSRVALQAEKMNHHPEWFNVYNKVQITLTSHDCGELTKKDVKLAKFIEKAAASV
UniProt Q9BTK6, whole entry, looked up: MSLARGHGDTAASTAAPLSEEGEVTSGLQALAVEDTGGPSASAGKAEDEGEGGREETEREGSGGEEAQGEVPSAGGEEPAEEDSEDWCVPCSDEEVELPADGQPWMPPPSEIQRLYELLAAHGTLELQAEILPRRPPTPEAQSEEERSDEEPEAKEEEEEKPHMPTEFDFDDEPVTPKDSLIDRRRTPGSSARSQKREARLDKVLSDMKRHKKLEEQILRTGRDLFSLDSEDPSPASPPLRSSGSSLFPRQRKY
UniProt O00151: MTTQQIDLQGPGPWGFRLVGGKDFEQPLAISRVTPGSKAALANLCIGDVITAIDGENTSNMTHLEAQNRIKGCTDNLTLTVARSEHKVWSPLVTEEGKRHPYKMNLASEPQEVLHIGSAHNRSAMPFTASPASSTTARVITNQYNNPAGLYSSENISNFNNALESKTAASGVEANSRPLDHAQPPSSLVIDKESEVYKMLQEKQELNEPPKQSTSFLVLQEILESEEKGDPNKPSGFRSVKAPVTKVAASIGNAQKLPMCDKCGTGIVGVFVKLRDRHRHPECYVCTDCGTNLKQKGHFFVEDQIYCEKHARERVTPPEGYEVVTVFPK
UniProt Q9NWT1: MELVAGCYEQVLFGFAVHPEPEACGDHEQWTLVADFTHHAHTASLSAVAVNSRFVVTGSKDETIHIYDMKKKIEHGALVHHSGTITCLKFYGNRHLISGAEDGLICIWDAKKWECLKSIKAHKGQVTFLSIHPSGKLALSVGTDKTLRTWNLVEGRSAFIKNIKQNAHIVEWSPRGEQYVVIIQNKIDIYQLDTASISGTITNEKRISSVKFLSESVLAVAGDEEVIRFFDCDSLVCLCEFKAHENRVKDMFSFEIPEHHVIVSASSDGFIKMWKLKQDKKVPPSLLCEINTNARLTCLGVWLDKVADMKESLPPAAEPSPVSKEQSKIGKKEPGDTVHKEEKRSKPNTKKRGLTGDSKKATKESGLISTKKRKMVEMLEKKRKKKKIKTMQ
UniProt Q9BPZ3: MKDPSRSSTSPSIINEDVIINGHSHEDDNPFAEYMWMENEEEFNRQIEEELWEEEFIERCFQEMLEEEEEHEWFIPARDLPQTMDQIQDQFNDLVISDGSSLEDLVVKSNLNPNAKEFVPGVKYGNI
UniProt Q9HBH1: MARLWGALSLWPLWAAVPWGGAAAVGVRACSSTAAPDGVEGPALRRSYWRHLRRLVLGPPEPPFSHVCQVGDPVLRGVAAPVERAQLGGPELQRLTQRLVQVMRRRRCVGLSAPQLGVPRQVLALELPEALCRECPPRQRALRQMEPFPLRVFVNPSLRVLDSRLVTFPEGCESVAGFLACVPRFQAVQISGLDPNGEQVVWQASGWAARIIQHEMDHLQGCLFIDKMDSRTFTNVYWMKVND
UniProt Q14690: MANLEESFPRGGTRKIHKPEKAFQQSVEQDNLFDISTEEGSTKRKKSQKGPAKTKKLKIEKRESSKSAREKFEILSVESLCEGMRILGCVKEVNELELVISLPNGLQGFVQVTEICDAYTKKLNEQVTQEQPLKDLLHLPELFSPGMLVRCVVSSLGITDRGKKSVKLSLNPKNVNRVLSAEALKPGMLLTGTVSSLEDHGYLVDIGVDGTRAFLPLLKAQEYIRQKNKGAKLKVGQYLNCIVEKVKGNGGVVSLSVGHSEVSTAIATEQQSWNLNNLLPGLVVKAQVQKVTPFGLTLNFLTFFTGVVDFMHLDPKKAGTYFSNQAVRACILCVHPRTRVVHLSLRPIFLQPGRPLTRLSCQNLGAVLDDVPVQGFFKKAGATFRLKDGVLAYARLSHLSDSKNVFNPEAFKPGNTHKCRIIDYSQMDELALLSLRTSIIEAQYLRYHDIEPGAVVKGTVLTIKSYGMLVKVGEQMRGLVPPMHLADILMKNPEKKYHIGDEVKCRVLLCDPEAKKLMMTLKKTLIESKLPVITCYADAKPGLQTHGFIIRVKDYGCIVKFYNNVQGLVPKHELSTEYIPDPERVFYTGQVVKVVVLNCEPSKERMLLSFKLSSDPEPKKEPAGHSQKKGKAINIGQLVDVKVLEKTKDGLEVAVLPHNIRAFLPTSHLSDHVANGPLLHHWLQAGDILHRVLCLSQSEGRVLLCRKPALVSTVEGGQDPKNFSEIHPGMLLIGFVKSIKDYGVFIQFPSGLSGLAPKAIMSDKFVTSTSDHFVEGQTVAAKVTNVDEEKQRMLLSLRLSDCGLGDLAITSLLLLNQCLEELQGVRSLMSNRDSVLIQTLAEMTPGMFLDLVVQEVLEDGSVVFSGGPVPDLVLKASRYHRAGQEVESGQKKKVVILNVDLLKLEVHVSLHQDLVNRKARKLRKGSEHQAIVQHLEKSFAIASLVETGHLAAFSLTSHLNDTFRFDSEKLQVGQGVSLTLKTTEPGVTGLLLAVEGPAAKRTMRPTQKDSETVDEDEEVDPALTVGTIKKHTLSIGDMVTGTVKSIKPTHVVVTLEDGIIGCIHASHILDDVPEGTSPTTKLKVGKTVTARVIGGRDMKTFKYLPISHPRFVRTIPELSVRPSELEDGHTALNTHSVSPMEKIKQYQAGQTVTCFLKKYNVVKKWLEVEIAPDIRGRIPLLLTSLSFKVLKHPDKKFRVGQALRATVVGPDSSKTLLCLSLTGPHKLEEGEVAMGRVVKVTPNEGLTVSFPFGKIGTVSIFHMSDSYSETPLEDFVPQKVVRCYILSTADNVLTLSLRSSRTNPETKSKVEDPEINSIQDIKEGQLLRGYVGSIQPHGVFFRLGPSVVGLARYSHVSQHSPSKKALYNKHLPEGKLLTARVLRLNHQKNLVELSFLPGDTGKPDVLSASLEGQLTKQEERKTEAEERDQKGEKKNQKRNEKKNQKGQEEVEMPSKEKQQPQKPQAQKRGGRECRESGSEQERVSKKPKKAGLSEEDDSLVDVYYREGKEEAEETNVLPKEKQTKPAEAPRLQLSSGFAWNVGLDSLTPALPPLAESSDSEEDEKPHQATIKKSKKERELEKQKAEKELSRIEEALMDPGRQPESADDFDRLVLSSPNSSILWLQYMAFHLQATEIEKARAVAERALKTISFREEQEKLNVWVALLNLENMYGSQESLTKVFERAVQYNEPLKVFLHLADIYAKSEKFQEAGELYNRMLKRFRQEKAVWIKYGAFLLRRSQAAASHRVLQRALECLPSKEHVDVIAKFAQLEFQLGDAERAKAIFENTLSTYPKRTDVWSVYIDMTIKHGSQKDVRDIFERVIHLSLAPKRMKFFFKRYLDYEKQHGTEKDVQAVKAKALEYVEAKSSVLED
UniProt P12955: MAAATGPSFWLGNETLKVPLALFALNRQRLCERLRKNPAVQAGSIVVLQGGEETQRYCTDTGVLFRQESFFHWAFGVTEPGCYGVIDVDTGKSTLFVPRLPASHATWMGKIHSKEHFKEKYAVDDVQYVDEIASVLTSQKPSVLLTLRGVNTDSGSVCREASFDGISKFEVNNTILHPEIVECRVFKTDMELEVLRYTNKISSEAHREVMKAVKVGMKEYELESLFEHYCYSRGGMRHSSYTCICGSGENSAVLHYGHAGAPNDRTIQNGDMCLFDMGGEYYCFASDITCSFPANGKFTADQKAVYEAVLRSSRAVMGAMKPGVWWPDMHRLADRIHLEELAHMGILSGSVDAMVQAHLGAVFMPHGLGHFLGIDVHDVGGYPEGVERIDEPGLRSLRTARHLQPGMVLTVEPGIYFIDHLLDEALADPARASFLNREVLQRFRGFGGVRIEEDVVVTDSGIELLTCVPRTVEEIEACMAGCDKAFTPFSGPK

volasertib = compound: CC[C@@H]1C(=O)N(C)c2cnc(Nc3ccc(C(=O)N[C@H]4CC[C@H](N5CCN(CC6CC6)CC5)CC4)cc3OC)nc2N1C(C)C [volasertib]
Outline: as §1

[2] = compound: CC[C@H](C)N1C=C(C2=C(C=C(C=C21)C3=CN=C(C=C3)N4CCNCC4)C(=O)NCC5=C(C=C(NC5=O)C)C)C
Outline: as §1

epoxomicin = compound: CC[C@H](C)[C@@H](C(=O)N[C@@H]([C@@H](C)O)C(=O)N[C@@H](CC(C)C)C(=O)[C@]1(CO1)C)NC(=O)[C@H]([C@@H](C)CC)N(C)C(=O)C [epoxomicin]
Outline: as §1

[3] = compound: CCn1c(C(=O)N(C2CC2)C2CC2)cc2c3c(ncn3C)c(Nc3cc(C)n(C)n3)nc21
Outline: as §1

[4] = compound: CCn1cc(-c2ccnc3[nH]c(-c4cccc(CN(C)C)c4)cc23)c(-c2ccc(NC(=O)N(C)C)cc2)n1
Outline: as §1

[5] = compound: CN(C)CC(=O)Nc1ccc2[nH]c(=O)c3ccccc3c2c1
Outline: as §1

rosiglitazone = compound: CN(CCOC1=CC=C(C=C1)C[C@H]2C(=O)NC(=O)S2)C3=CC=CC=N3 (racemic) [rosiglitazone]
Outline: as §1

[6] = compound: CN1C2=C(C3=C1C(=O)N(N=C3)CC4=CC(=CC=C4)N)SC(=C2)S(=O)C
Outline: as §1

[7] = compound: CN1CCC(CNc2ccc3ncc(-c4cccc(OC(F)(F)F)c4)n3n2)CC1
Outline: as §1

Measured: log2 fold change

PAGE2 (UniProt Q7Z2X7)
inactive: [1] 0.085 | volasertib -0.047 | [2] -0.025 | epoxomicin 0.118 | [3] -0.064 | [4] 0.067 | [5] 0.009 | rosiglitazone 0.002 | [6] -0.11 | [7] 0.013

PDHX (UniProt O00330)
inactive: [1] 0.071 | volasertib 0.3 | [2] -0.017 | epoxomicin -0.044 | [3] 0.073 | [4] 0.186 | [5] -0.021 | rosiglitazone -0.069 | [6] 0.174 | [7] 0.123

PAK2 (UniProt Q13177)
inactive: [1] -0.043 | volasertib -0.017 | [2] 0.032 | epoxomicin 0.006 | [3] 0.026 | [4] -0.027 | [5] 0.011 | rosiglitazone 0.005 | [6] -0.08 | [7] -0.026

PAPOLA (UniProt P51003)
inactive: [1] -0.001 | volasertib -0.049 | [2] 0.044 | epoxomicin 0.044 | [3] 0.004 | [4] -0.06 | [5] -0.018 | rosiglitazone 0.038 | [6] -0.095 | [7] -0.009

PDIA5 (UniProt Q14554)
inactive: [1] 0.022 | volasertib 0.007 | [2] 0.01 | epoxomicin 0.017 | [3] 0.005 | [4] 0.017 | [5] -0.042 | rosiglitazone -0.035 | [6] 0.065 | [7] 0.1

PDXDC1 (UniProt Q6P996)
inactive: [1] 0.119 | volasertib -0.263 | [2] -0.13 | epoxomicin -0.286 | [3] -0.043 | [4] -0.22 | [5] -0.161 | rosiglitazone -0.227 | [6] 0.34 | [7] 0.061

PDHB (UniProt P11177)
inactive: [1] 0.01 | volasertib 0.156 | [2] 0.059 | epoxomicin 0.049 | [3] -0.043 | [4] 0.005 | [5] 0.017 | rosiglitazone 0.022 | [6] 0.042 | [7] -0.036

PER3 isoform 2 (UniProt P56645)
inactive: [1] 0.018 | volasertib -0.012 | [2] -0.012 | epoxomicin -0.009 | [3] -0.022 | [4] -0.03 | [5] 0.067 | rosiglitazone 0.004 | [6] -0.038 | [7] 0.073

PARVB (UniProt Q9HBI1)
inactive: [1] 0.071 | volasertib 0.056 | [2] 0.073 | epoxomicin 0.03 | [3] 0.068 | [4] -0.061 | [5] 0.019 | rosiglitazone 0.081 | [6] -0.023 | [7] -0.156

PALM3 (UniProt A6NDB9)
inactive: [1] 0.192 | volasertib 0.065 | [2] 0.025 | epoxomicin -0.008 | [3] 0.01 | [4] 0.145 | [5] -0.015 | rosiglitazone 0.001 | [6] -0.128 | [7] 0.114

Reprinted at random: two entries already listed, in no set order.
PDHB (UniProt P11177)
inactive: [1] 0.01 | volasertib 0.156 | [2] 0.059 | epoxomicin 0.049 | [3] -0.043 | [4] 0.005 | [5] 0.017 | rosiglitazone 0.022 | [6] 0.042 | [7] -0.036

PALM3 (UniProt A6NDB9)
inactive: [1] 0.192 | volasertib 0.065 | [2] 0.025 | epoxomicin -0.008 | [3] 0.01 | [4] 0.145 | [5] -0.015 | rosiglitazone 0.001 | [6] -0.128 | [7] 0.114

(continued)

PANK4 (UniProt Q9NVE7)
inactive: [1] 0.095 | volasertib -0.015 | [2] 0.031 | epoxomicin 0.058 | [3] -0.003 | [4] -0.106 | [5] -0.006 | rosiglitazone 0.206 | [6] -0.05 | [7] 0.038

PARK7 (UniProt Q99497)
inactive: [1] 0.017 | volasertib 0.068 | [2] 0 | epoxomicin -0.01 | [3] -0.011 | [4] 0.035 | [5] 0.087 | rosiglitazone 0.02 | [6] -0.115 | [7] 0.082

PCBD2 (UniProt Q9H0N5)
inactive: [1] 0.065 | volasertib 0.07 | [2] -0.032 | epoxomicin -0.008 | [3] -0.028 | [4] -0.023 | [5] -0.054 | rosiglitazone 0.008 | [6] -0.063 | [7] -0.004

PAGR1 (UniProt Q9BTK6)
inactive: [1] 0.024 | volasertib 0.174 | [2] 0.027 | epoxomicin 0.054 | [3] 0.003 | [4] -0.029 | [5] 0.03 | rosiglitazone 0.005 | [6] 0.059 | [7] 0.079

PDLIM1 (UniProt O00151)
inactive: [1] -0.069 | volasertib 0.031 | [2] -0.039 | epoxomicin 0.039 | [3] 0.017 | [4] -0.009 | [5] 0.002 | rosiglitazone -0.001 | [6] -0.029 | [7] -0.003

PANK2 (UniProt Q9BZ23)
inactive: [1] -0.066 | volasertib -0.067 | [2] 0.011 | epoxomicin 0 | [3] -0.063 | [4] -0.047 | [5] 0.004 | rosiglitazone 0.028 | [6] -0.024 | [7] 0.01

PAK1IP1 (UniProt Q9NWT1)
inactive: [1] 0.304 | volasertib 0.53 | [2] -0.039 | epoxomicin -0.37 | [3] 0.037 | [4] 0.31 | [5] -0.199 | rosiglitazone -0.193 | [6] 0.321 | [7] 0.455

PBDC1 (UniProt Q9BVG4)
inactive: [1] -0.018 | volasertib -0.114 | [2] 0.061 | epoxomicin 0.03 | [3] 0.041 | [4] 0.022 | [5] 0.012 | rosiglitazone -0.002 | [6] -0.027 | [7] -0.108

PAPSS1 (UniProt O43252)
inactive: [1] 0.013 | volasertib 0.035 | [2] 0.014 | epoxomicin 0.027 | [3] -0.005 | [4] -0.04 | [5] -0.02 | rosiglitazone 0.015 | [6] -0.037 | [7] -0.057

PAIP2 (UniProt Q9BPZ3)
inactive: [1] 0.007 | volasertib -0.08 | [2] 0.1 | epoxomicin 0.01 | [3] 0.072 | [4] 0.013 | [5] 0.037 | rosiglitazone 0.031 | [6] 0.079 | [7] -0.021

PACSIN2 (UniProt Q9UNF0)
inactive: [1] -0.003 | volasertib -0.024 | [2] 0.097 | epoxomicin -0.021 | [3] -0.121 | [4] -0.057 | [5] 0.092 | rosiglitazone 0.103 | [6] 0.017 | [7] -0.158

PDF (UniProt Q9HBH1)
inactive: [1] -0.044 | volasertib -0.083 | [2] -0.004 | epoxomicin -0.032 | [3] -0.002 | [4] -0.023 | [5] 0.032 | rosiglitazone 0.06 | [6] -0.04 | [7] -0.192

PCMT1 isoform 2 (UniProt P22061)
inactive: [1] -0.004 | volasertib 0.057 | [2] 0.03 | epoxomicin -0.006 | [3] 0.022 | [4] -0.042 | [5] 0.027 | rosiglitazone 0.025 | [6] -0.074 | [7] 0

PDXP (UniProt Q96GD0)
inactive: [1] 0.016 | volasertib 0.022 | [2] -0.065 | epoxomicin -0.04 | [3] -0.022 | [4] 0 | [5] -0.014 | rosiglitazone 0.006 | [6] -0.03 | [7] -0.011

PDCD11 (UniProt Q14690)
inactive: [1] 0.029 | volasertib -0.393 | [2] 0.003 | epoxomicin -0.144 | [3] -0.13 | [4] -0.066 | [5] -0.045 | rosiglitazone 0.199 | [6] 0.244 | [7] -0.009

PEPD (UniProt P12955)
inactive: [1] 0.045 | volasertib -0.01 | [2] 0.023 | epoxomicin -0.004 | [3] 0.013 | [4] -0.044 | [5] 0.019 | rosiglitazone -0.054 | [6] -0.012 | [7] 0.017

PCCA (UniProt P05165)
inactive: [1] 0.077 | volasertib 0.15 | [2] 0.01 | epoxomicin 0.014 | [3] -0.005 | [4] -0.075 | [5] 0.058 | rosiglitazone 0.068 | [6] -0.003 | [7] -0.099
